# In PubChem BioAssay AID504467 (National Center for Advancing Translational Sciences (NCATS), 2011):
# Hit rate of the full screen: of about 330,000 compounds, about 7,700 (2.3%) were called active. This list was built around the results that the source calls inconclusive (neither active nor inactive); the mix of calls is not that of the screen. The call rests on the fitted dose curve; in most records, active means well fitted inhibition curve with a large enough effect; inconclusive means small, poorly fitted or top-dose-only effect, or effect the other way; inactive means flat fitted curve, though single readings scatter. Potencies of inconclusive entries are doubtful fits and often do not repeat.
# Assay: qHTS screen for small molecules that inhibit ELG1-dependent DNA repair in human embryonic kidney (HEK293T) cells expressing luciferase-tagged ELG1; further: nearly all actives have a fitted effect of over 55% in size
# Settings: HEK293T ELG1-luciferase reporter, luminescence, 16 h, DNA damage induced by 5-fluorouridine; series mostly up to 46.1 µM
# How it was run: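 Quantitative HTS, concentration-response format. 2,000 cells/well co-treated with 5-fluorouridine and compound, 16 hr in 5% CO2 at 37 °C; ONE-Glo luminescence read after 30 min.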
# Potency means the concentration at half of the fitted maximal effect.
row,SMILES,Potency
1,COc1ccc(N2CC(C(=O)NCc3n[nH]c(=O)c4ccccc34)CC2=O)cc1 (stereo unspecified),inactive
2,Cc1ccc(Cn2cc(C(=O)c3ccc(F)cc3)c(=O)c3cc4c(cc32)OCCO4)cc1,active: 20.6 µM
3,O=C(c1cccnc1)N(c1cc2sc(=O)oc2c2ccccc12)S(=O)(=O)c1ccccc1,"inconclusive: 29.1 µM [inhibitor, single point]"
4,O=C(COC(=O)c1cccc(-n2cnnn2)c1)c1ccc(F)cc1,"inconclusive: 5.17 µM [activator, partial curve]"
5,CCCn1c(SCc2nc3ccccc3s2)n[nH]c1=O,"inconclusive: 18.3 µM [activator, partial curve]"
6,Cc1c(-c2csc(N)n2)cnn1C,"inconclusive: 23.1 µM [activator, partial curve, poor fit]"
7,CCOC(=O)c1cnc2c(-c3ccccc3)cnn2c1C,"inconclusive: 9.2 µM [activator, partial curve]"
8,COc1cccc(OCc2cc(C(=O)NCc3ccc4c(c3)OCO4)no2)c1,"inconclusive: 20.6 µM [activator, single point]"
9,COc1ccc(C2CC(c3ccccc3)=NN2S(=O)(=O)c2ccccc2)c(OC)c1 (stereo unspecified),inactive
10,Cc1ccc(NC(=O)c2sc(N)nc2C)cc1,"inconclusive: 23.1 µM [activator, partial curve]"
11,O=C(NC1CCCCC1)C(=S)NC1CCCCC1,"inconclusive: 3.26 µM [activator, partial curve]"
12,CN(C)c1ccc(N=Nc2ccccc2C(=O)OCC(=O)N2CCCC2)cc1,"inconclusive: 3.66 µM [activator, partial curve, poor fit]"
13,CN1CCC(Oc2ccc(Sc3ccccc3)cc2)CC1,"inconclusive: 20.6 µM [activator, partial curve]"
14,Cc1ccccc1-c1nc2sc3c(c2c(=O)o1)CCC3,inactive
15,Cc1ccc(N2C(=O)CC(Sc3nc4ccccc4o3)C2=O)cc1Cl (stereo unspecified),inactive
16,Cc1cc(=O)oc2cc(OCC(=O)NC3CCCC3)ccc12,"inconclusive: 7.3 µM [activator, single point]"
17,Cc1nn(-c2ccc(Cl)cc2)c(=O)c2ccccc12,"inconclusive: 13 µM [activator, partial curve]"
18,O=C(COc1ncnc2cc(Cl)ccc12)c1ccc2c(c1)OCCO2,"inconclusive: 10.3 µM [activator, partial curve]"
19,CC(C)CN1C(=O)C(=O)N(CC(=O)c2ccc3c(c2)CCCC3)C1=O,"inconclusive: 29.1 µM [activator, single point]"
20,COc1cc2c(cc1OC)C(COc1ccc(F)cc1)N(C(=O)c1ccco1)CC2 (stereo unspecified),"inconclusive: 18.4 µM [inhibitor, single point]"
21,COc1cccc(C(=O)OCC(=O)NC23CC4CC(CC(C4)C2)C3)c1,inactive
22,COC(=O)c1ccc(C(=O)OC)c(NC(=O)Nc2ccc3c(c2)OCO3)c1,"inconclusive: 10.3 µM [activator, partial curve]"
23,CCN1CCN(c2sc(S(C)(=O)=O)nc2S(=O)(=O)c2ccc(C)cc2)CC1,"inconclusive: 0.73 µM [inhibitor, partial curve]"

# Quoted at random: 2 compounds from above.
row,SMILES,Potency
18,O=C(COc1ncnc2cc(Cl)ccc12)c1ccc2c(c1)OCCO2,"inconclusive: 10.3 µM [activator, partial curve]"
20,COc1cc2c(cc1OC)C(COc1ccc(F)cc1)N(C(=O)c1ccco1)CC2 (stereo unspecified),"inconclusive: 18.4 µM [inhibitor, single point]"

# (continued)

row,SMILES,Potency
1,Cc1nn2c(N)c(-c3ccccc3)cnc2c1-c1ccc(Cl)cc1,"inconclusive: 18.3 µM [activator, partial curve]"
2,Cc1cccc(OCCCC(=O)NC(C)C)c1,inactive
3,CCOc1ccccc1CNCCNC(=O)c1nonc1N,"inconclusive: 0.82 µM [activator, full curve, poor fit]"
4,N#Cc1ccccc1NC(=O)c1ccc2c(Cl)c3c(nc2c1)CCCC3,"inconclusive: 2.59 µM [activator, full curve]"
5,O=C(CN1CCCCC1)Nc1nc(-c2ccccc2)cs1,"inconclusive: 18.3 µM [activator, partial curve]"
6,COc1ccccc1/C=N/OC(=O)c1ccc(C)cc1,inactive
7,O=C(Cn1cncc1-c1ccc([N+](=O)[O-])cc1)Nc1ccccc1F,inactive
8,Cc1nc2ccc(NC(=O)NCCO)cc2s1,"inconclusive: 32.6 µM [activator, partial curve, poor fit]"
9,COC(=O)c1cc(-c2ccc(Br)cc2)n[nH]1,"inconclusive: 18.4 µM [activator, single point]"
10,Cc1ccc(C)c(C(=O)CN2C(=O)c3ccccc3S2(=O)=O)c1,"inconclusive: 10 µM [activator, partial curve]"
11,COc1ccc(Nc2oc(-c3cccs3)nc2C#N)cc1,"inconclusive: 3.26 µM [activator, partial curve, poor fit]"
12,CCOC(=O)c1ccc2[nH]c3c(c2c1)CCCC3C(=O)OCC (stereo unspecified),inactive
13,CC(=O)c1ccc(N2CCN(C(=O)c3ccc(-c4ccccc4)cc3)CC2)cc1,inactive
14,N#C/C(=C\c1c(N2CCCCCC2)nc2ccccn2c1=O)C(=O)NCc1ccco1,"inconclusive: 8.2 µM [inhibitor, partial curve, poor fit]"
15,Nc1cc(C(=O)OCC(=O)N2CCCC2)ccc1Cl,"inconclusive: 20.6 µM [activator, partial curve]"
16,CN(C)S(=O)(=O)c1ccc(C(=O)OCc2nnc(-c3ccccc3)o2)cc1,"inconclusive: 18.3 µM [activator, single point]"
17,CN(C)c1cccc(C(=O)NNC(=O)CN2C(=O)C3CC=CCC3C2=O)c1 (stereo unspecified),"inconclusive: 5.8 µM [activator, partial curve]"
18,O=C(N/N=C/c1ccc[nH]1)c1cccc(Br)c1,"inconclusive: 20.6 µM [activator, single point]"
19,O=c1nc(N2CCOCC2)ccn1-c1nc(-c2ccccc2)sc1-c1ccccc1,inactive
20,O=C(O)c1cnc(-c2ccccc2)nc1Oc1ccc(Cl)cc1,inactive
21,Cc1cc(NC(=O)CC#N)n(-c2nc3ccccc3[nH]2)n1,active: 11.6 µM
22,COc1ccc(OC)c(CN2CCN(CC(=O)Nc3ccccc3C(=O)NC3CC3)CC2)c1,"inconclusive: 3.66 µM [inhibitor, partial curve]"
23,COC(=O)c1c(NC(=O)Cc2cccs2)sc(C(=O)N2CCCCC2)c1C,active: 25.9 µM
